# No constants are given. Whether binding was seen depends on the method and setting. Binding seen in cells or lysates may run through a third protein. Here binding means that the protein was enriched with, or labelled near, the bait; the list need not be complete. For part of these data: Sequences can lack the tags named with a protein.
# Protein sequences, listed by entry. Tags and fused reporters are not part of them. Lines headed by an entry give the natural chain unless they say otherwise; changes in a name come on top.
# UniProt Q7KLW9: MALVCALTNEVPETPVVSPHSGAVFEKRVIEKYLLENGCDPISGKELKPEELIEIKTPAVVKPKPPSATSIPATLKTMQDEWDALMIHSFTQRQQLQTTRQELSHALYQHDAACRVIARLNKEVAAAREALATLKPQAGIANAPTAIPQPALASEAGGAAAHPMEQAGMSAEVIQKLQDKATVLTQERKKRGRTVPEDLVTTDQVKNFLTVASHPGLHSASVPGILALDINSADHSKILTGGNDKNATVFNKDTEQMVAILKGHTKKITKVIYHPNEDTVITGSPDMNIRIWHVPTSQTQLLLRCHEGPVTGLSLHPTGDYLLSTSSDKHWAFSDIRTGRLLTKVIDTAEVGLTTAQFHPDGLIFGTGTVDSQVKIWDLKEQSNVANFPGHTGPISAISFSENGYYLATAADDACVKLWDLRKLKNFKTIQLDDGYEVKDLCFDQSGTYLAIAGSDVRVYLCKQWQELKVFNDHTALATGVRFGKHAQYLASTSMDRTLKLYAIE
# UniProt Q9W0R0: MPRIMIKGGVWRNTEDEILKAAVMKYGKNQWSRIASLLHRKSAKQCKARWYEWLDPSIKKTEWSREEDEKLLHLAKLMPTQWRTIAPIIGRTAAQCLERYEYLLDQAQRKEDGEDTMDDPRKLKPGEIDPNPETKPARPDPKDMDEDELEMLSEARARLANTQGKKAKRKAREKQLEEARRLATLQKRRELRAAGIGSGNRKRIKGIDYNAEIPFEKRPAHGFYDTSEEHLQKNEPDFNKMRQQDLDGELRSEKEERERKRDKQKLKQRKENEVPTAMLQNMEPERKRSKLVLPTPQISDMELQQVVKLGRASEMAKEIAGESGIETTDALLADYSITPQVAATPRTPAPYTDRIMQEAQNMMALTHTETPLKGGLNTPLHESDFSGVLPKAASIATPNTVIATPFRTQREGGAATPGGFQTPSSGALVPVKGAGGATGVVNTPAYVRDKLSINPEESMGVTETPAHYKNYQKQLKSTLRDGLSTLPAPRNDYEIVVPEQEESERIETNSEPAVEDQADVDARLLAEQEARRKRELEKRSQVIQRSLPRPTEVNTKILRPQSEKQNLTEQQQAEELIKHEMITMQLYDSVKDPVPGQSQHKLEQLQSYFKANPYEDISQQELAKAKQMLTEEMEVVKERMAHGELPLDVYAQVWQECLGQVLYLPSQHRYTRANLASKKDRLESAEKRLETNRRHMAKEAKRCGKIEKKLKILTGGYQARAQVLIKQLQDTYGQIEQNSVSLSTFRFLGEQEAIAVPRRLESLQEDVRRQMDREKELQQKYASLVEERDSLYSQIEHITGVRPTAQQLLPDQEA
# UniProt Q9VAY6: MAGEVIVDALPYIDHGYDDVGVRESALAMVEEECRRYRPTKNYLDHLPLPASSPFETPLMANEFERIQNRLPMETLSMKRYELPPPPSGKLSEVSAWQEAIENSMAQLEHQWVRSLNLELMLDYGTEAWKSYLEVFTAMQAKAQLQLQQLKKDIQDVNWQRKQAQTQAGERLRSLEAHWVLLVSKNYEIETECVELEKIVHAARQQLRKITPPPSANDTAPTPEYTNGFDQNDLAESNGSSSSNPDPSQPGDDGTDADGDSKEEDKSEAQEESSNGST
# UniProt Q7KTP9: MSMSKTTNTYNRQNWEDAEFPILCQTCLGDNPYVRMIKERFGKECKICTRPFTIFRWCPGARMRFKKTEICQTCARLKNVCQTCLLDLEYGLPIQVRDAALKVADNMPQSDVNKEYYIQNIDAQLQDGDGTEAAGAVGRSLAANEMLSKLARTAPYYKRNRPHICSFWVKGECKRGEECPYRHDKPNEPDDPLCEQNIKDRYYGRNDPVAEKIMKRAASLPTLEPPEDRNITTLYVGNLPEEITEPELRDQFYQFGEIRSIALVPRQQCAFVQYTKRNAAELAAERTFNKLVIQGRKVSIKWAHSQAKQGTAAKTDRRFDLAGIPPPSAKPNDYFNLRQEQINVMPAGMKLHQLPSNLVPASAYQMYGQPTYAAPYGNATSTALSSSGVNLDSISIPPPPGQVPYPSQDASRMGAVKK
# UniProt Q9VYQ9: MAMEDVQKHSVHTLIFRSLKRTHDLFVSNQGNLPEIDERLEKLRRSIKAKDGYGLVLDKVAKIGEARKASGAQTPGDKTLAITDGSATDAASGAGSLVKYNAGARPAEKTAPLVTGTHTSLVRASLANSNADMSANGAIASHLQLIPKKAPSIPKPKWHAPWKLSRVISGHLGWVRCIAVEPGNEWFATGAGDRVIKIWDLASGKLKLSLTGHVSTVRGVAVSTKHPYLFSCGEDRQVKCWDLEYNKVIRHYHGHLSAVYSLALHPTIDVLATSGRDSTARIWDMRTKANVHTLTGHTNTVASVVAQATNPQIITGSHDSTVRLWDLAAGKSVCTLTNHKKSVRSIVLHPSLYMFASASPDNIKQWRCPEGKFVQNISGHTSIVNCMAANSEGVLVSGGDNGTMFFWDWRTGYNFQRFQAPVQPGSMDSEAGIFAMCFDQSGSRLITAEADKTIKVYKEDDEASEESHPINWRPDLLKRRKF
# UniProt Q9V3G3: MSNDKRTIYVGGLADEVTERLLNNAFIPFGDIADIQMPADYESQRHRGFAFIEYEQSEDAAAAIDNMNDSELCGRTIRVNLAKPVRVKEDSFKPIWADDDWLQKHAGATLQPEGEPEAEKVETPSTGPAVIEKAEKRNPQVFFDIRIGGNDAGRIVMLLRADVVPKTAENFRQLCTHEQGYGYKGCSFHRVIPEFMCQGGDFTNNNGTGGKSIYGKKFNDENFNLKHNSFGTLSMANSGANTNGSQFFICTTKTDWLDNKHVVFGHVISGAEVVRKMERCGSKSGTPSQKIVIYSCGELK
# UniProt Q9W0Q2: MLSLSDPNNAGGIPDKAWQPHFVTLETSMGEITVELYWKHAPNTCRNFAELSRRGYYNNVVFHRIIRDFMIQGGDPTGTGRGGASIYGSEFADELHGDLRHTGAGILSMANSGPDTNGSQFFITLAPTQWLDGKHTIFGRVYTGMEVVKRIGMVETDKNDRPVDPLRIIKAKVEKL
# T1: Myc-tagged Fandango (Fandango-6xMyc) (Drosophila melanogaster) (UniProt A1Z9G2)
# T1 sequence: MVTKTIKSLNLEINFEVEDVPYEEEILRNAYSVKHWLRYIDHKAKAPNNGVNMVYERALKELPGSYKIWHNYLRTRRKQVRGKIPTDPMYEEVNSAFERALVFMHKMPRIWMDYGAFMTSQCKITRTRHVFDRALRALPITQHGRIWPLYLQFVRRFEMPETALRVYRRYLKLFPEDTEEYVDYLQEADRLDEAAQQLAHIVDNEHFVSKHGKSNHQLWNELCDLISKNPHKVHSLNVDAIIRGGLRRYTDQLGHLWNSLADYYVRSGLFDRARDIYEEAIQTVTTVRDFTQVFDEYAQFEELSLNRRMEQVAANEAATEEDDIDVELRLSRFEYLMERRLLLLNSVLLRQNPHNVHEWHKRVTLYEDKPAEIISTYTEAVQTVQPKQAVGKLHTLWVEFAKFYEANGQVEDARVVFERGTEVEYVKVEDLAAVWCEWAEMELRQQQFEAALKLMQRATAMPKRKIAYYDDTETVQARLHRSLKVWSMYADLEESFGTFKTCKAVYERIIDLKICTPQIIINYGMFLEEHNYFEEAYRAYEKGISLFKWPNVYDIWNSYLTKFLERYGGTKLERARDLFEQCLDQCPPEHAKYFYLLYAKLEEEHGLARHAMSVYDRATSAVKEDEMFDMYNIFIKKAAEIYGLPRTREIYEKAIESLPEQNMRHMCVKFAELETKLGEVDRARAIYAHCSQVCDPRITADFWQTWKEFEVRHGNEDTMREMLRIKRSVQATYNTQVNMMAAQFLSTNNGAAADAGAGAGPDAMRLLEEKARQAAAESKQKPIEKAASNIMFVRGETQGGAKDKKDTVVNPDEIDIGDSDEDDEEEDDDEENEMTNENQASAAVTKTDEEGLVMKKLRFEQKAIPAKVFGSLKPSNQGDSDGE
# B1: c12.1 (CG12135) (protein, UniProt Q9V3B6 1-259)
# chain: MTTAARPTFDPARGGSGRGEKDLSALSKQYSSRDLPGHTKLKYRETGQGTSDENRNRDFRKELEEREREARSGTGATSSSSGKALPSIVRKAIEANNAGGGSSAAKRSKPDAGQQQAQQAAQQQAANMDADEPLDNDSSDSDSDSDDDDAALLAELQKIKQERLQETARRESEKKQEDERIRMENILSGNPLMNYEPGTAASAAGRASGLGGDLKIKRRWDDDVVFKNCARSAPDKKTHFVNDALRSDFHKKFMDKYIK
# B2: Bx42 (CG8264) (protein, UniProt P39736 1-547)
# chain: MSLSSLLPTPTNAIWDREDERRLVARGAPKIGALVSAKIAAPPYGQRKDWVPHTDADFGDGGAFPEIHVAQYPLGLGAPGNVGKKSDALAVRLDDKGKVKYDAIARQGHGKDKIVYSSISQLLPAEVLAEDADELQRPDEETVMETTEETRLALEKLTNQKITSALPVRHAQKAGPAQYIRYTPSQQGDTFNSGAKQRVIRMVEAQLDPMEPPKFRINKKIPRGPPSPPAPVLHSPSRKVTVKEQKEWKIPPCISNWKNAKGYTIPLDKRLAADGRGLQQVHINEKFAKMAEALYIADRKAREAVEARSQLEKKLAQKEKEKKEDMLRMMAQRAREERAGLRNPEAAEPSGSGATGSEVRERNDLRAERQRERQRDRNLQRAAPEKRSKLQKERERDISEQIALGLPAKSAGNGETLFDQRLFNTTKGMDSGYGDDEAYNVYDKPWRDSNTLGAHIYRPSKQADSDNYGGDLDAIVNTKRFVPDKQFSGASKEAAAGQRSGPVEFEKEEDPFGLDQFLNMAKKAPKRAEEKNNERSSHSDRKRSKRD
# B3: Crn (CG3193) (protein, UniProt P17886 1-702)
# chain: MERPQKMPKVAKVKNKAPAEVQITAEQLLREAKERDLEILPPPPKQKISDPAELADYQQRKRKTFEDNLRKNRMVVSHWIKYAQWEEQQQEIQRARSIWERALDNEHRNVTLWLKYAEMEMKNKQVNHARNLWDRAVTIMPRVNQFWYKYTYMEEMLENVAGARQVFERWMEWQPEEQAWQTYVNFELRYKEIDRAREIYERFVYVHPDVKNWIKFARFEESHGFIHGSRRVFERAVEFFGDDYIEERLFIAFARFEEGQKEHDRARIIYKYALDHLPKDRTQELFKAYTKHEKKYGDRAGIEDVIVSKRKYQYEQEVAANPTNYDAWFDYLRLIEAEGDRDQIRETYERAISNVPPANEKNFWRRYIYLWINYALYEELEAEDAERTRQIYKTCLELIPHKQFTFSKLWLLYAQFEIRCKELQRARKALGLAIGMCPRDKLFRGYIDLEIQLREFERCRMLYEKFLEFGPENCVTWMKFAELENLLGDTDRARAIFELAVQQPRLDMPELLWKAYIDFEVALGETELARQLYERLLERTQHVKVWMSFAKFEMGLSHGDSGPDAELNVQLARRIYERANEMLRQLGDKESRVLLLEAWRDFERDASDSQEMQKVMDKMPRRIKKRQKIVSDNGVEEGWEEVFDYIFPEDEMARPNLKLLAAAKMWKTQKDNTVDDPPATAIASEPEPAADAAPADTTDSGD
# B4: Fandango (CG6197) (protein, UniProt A1Z9G2 1-883)
# chain: T1 sequence
# What was measured:
# [1] = biological target: T1, Myc-tagged Fandango (Fandango-6xMyc) (Drosophila melanogaster); assay: affinity purification with mass spectrometry; total protein extracts of ovaries expressing the Myc-tagged bait; 1 mg protein in NB buffer (150 mM NaCl, 50 mM Tris-HCl pH 7,5, 2 mM EDTA, 0,1% NP-40, 1 mM DTT, 10 mM NaF), mouse c-Myc antibody 9E10, Dynabeads Protein G, 4°C; LC-MS-MS/MS; two replicas
# [2] = biological target: T1, Myc-tagged Fandango (Fandango-6xMyc) (Drosophila melanogaster); assay: affinity purification with mass spectrometry; total protein extracts of embryos expressing the Myc-tagged bait; 1 mg protein in NB buffer (150 mM NaCl, 50 mM Tris-HCl pH 7,5, 2 mM EDTA, 0,1% NP-40, 1 mM DTT, 10 mM NaF), mouse c-Myc antibody 9E10, Dynabeads Protein G, 4°C; LC-MS-MS/MS; two replicas
# [3] = biological target: Myc-tagged Prp19 (Prp19-6xMyc) (Drosophila melanogaster) (UniProt Q7KLW9); assay: as above
molecule,measurement,setting,value
"CDC5L (CG6905, cdc5-like) (from UniProt Q9W0R0)",binding,[1],binds
same,binding,[2],binds
CG4980 (from UniProt Q9VAY6),binding,[1],binds
same,binding,[3],binds
CG14641 (from UniProt Q7KTP9),binding,[1],binds
same,binding,[3],binds
same,binding,[2],binds
CG31368,binding,[1],binds
same,binding,[2],binds
ISY1 (CG9667),binding,[1],binds
same,binding,[2],binds
Prp19 (CG5519) (from UniProt Q7KLW9 1-505),binding,[1],binds
same,binding,[2],binds
Tango4 (CG1796) (from UniProt Q9VYQ9),binding,[1],binds
same,binding,[3],binds
same,binding,[2],binds
cyp33 (CG4886) (from UniProt Q9V3G3 1-300),binding,[1],binds
same,binding,[3],binds
same,binding,[2],binds
cypl (CG13892) (from UniProt Q9W0Q2),binding,[2],binds
B1,binding,[1],binds
B2,binding,[1],binds
same,binding,[3],binds
same,binding,[2],binds
B3,binding,[1],binds
same,binding,[3],binds
B4,binding,[3],binds
